{
  "source": "paper PMC7891696",
  "about": "“The molecular targets of ivermectin and lotilaner in the human louse Pediculus humanus humanus: New prospects for the treatment of pediculosis” (PLoS Pathogens, 2021)",
  "origin": "cited, not measured here",
  "system": "RDL-2",
  "details": "GABA on RDL-2 subunit; cited from earlier work",
  "data": [
    {"smiles": "NCCCC(=O)O", "note": "[GABA, γ-aminobutyric acid]", "values": [
      {"measurement": "EC50", "result": "2.4 ± 0.3", "unit": "µM"}
    ]}
  ]
}
